The other results are listed elsewhere or left out.
Legend:
Assay in all cases: log2 fold change, soluble protein after heating vs DMSO (PISA); higher = thermal stabilisation; K562 lysate, 10 uM; active = over 0.2 and 3.5 SD of the protein, either way, in both replicates (recomputed)
nilotinib = compound: Cc1cn(-c2cc(NC(=O)c3ccc(C)c(Nc4nccc(-c5cccnc5)n4)c3)cc(C(F)(F)F)c2)cn1 [nilotinib]
Procedure, shortened: (§1)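 Values give the log-two fold change in thermal stability against solvent controls, from duplicates. Crude K562 extract at 1 mg/mL protein, made by dounce homogenisation in PBS pH 7.4 with 1 mM MgCl2, was treated with 10 μM compound for 30 min. After 3 min heating across 48°C-58°C, aliquots were pooled, adjusted to 0.5% NP-40 at 4°C and centrifuged at 21,000xg for 90 min. The supernatant was measured by TMTpro 16plex LC-MS/MS with channel sums equalised.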

Amino acid sequences for entries named in this document (tags omitted). A change or cut given only in a name is not applied to a line headed by its entry.
UniProt Q9BYV8: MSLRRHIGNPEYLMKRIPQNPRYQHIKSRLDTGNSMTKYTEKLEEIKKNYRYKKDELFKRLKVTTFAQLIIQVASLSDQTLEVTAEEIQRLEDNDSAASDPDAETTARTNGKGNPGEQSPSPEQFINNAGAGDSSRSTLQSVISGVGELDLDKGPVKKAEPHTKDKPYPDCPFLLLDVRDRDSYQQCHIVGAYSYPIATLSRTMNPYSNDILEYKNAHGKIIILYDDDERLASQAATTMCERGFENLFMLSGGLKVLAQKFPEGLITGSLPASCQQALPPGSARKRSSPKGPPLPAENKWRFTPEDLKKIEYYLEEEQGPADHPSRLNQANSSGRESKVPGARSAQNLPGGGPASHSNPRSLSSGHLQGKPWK
UniProt Q9Y281, whole entry, looked up: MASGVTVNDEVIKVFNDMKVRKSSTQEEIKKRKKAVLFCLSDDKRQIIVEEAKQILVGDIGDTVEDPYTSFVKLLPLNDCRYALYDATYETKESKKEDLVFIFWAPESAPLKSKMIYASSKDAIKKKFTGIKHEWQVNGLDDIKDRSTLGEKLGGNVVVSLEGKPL
UniProt Q15517: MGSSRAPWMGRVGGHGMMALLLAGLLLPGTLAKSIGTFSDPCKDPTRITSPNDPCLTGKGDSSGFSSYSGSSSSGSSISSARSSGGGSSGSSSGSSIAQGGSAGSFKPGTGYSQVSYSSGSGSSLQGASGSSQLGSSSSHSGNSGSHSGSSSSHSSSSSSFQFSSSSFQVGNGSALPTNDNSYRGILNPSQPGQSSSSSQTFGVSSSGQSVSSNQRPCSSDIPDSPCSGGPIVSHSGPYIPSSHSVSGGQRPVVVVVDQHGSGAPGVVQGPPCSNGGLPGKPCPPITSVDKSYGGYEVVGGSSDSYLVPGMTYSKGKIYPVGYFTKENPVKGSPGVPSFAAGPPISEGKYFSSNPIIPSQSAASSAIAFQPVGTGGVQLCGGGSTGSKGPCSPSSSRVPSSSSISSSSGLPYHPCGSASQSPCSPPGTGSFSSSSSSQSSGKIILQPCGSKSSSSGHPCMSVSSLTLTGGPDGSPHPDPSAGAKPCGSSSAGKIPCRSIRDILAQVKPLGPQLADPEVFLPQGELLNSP
UniProt Q8NHZ8, whole entry, looked up: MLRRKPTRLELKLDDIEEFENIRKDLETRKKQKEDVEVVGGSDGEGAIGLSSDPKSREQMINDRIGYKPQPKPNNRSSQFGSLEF
UniProt Q6ZMG9: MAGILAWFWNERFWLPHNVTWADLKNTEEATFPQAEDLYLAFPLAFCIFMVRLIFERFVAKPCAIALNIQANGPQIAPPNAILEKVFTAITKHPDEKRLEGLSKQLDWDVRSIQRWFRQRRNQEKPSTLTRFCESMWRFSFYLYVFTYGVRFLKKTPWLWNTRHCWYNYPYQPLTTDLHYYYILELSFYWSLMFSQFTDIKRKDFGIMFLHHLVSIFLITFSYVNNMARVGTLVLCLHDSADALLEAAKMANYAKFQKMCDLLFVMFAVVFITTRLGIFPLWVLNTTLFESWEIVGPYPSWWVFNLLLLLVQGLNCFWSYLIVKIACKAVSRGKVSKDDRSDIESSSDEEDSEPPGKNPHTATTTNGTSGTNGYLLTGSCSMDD
UniProt Q5VV42: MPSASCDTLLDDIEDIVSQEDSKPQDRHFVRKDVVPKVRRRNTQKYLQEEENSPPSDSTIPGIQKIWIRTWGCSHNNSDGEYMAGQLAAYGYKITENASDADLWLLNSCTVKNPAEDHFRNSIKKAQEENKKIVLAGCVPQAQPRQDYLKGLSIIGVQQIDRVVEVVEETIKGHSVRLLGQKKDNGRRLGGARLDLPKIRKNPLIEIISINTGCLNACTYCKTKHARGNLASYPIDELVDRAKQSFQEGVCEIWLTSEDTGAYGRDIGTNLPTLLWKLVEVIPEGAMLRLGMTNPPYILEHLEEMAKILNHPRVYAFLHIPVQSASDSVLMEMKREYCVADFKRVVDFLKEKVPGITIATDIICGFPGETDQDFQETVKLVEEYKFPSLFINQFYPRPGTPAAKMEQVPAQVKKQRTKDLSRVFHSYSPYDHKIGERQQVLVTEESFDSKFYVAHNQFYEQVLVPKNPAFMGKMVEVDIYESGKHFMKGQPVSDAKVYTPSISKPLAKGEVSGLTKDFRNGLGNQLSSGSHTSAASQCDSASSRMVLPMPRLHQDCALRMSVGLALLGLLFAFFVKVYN
UniProt P60953, whole entry, looked up: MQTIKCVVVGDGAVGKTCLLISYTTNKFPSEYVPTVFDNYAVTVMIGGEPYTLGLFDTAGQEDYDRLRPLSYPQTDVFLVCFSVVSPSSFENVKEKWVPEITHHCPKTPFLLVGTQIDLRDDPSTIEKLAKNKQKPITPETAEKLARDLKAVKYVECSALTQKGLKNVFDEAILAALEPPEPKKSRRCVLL
UniProt Q8N2Z9: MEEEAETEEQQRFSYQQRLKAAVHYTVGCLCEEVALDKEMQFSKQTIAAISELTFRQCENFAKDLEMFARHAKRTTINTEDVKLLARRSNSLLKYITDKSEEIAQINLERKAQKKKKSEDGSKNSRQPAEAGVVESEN
UniProt Q00535, whole entry, looked up: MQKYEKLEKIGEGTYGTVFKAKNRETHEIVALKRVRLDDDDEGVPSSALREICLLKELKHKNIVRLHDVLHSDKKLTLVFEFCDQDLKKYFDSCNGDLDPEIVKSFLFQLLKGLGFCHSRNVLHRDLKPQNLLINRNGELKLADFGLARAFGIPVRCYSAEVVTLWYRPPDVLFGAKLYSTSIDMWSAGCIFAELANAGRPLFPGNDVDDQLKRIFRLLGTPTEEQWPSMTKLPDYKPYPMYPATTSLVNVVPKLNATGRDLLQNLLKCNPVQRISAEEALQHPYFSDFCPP
UniProt Q01850: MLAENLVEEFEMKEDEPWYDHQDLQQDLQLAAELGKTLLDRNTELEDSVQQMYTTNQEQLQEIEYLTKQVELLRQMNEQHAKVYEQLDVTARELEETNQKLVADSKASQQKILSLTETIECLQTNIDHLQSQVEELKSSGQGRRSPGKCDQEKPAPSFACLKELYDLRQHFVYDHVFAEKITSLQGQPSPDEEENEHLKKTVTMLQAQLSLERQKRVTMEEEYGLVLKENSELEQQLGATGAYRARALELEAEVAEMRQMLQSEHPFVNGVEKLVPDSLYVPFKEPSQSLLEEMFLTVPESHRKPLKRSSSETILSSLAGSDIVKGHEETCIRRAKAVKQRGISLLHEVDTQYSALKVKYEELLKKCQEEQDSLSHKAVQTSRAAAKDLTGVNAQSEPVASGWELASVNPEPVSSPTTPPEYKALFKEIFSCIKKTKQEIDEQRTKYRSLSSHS
UniProt Q6ZTR5: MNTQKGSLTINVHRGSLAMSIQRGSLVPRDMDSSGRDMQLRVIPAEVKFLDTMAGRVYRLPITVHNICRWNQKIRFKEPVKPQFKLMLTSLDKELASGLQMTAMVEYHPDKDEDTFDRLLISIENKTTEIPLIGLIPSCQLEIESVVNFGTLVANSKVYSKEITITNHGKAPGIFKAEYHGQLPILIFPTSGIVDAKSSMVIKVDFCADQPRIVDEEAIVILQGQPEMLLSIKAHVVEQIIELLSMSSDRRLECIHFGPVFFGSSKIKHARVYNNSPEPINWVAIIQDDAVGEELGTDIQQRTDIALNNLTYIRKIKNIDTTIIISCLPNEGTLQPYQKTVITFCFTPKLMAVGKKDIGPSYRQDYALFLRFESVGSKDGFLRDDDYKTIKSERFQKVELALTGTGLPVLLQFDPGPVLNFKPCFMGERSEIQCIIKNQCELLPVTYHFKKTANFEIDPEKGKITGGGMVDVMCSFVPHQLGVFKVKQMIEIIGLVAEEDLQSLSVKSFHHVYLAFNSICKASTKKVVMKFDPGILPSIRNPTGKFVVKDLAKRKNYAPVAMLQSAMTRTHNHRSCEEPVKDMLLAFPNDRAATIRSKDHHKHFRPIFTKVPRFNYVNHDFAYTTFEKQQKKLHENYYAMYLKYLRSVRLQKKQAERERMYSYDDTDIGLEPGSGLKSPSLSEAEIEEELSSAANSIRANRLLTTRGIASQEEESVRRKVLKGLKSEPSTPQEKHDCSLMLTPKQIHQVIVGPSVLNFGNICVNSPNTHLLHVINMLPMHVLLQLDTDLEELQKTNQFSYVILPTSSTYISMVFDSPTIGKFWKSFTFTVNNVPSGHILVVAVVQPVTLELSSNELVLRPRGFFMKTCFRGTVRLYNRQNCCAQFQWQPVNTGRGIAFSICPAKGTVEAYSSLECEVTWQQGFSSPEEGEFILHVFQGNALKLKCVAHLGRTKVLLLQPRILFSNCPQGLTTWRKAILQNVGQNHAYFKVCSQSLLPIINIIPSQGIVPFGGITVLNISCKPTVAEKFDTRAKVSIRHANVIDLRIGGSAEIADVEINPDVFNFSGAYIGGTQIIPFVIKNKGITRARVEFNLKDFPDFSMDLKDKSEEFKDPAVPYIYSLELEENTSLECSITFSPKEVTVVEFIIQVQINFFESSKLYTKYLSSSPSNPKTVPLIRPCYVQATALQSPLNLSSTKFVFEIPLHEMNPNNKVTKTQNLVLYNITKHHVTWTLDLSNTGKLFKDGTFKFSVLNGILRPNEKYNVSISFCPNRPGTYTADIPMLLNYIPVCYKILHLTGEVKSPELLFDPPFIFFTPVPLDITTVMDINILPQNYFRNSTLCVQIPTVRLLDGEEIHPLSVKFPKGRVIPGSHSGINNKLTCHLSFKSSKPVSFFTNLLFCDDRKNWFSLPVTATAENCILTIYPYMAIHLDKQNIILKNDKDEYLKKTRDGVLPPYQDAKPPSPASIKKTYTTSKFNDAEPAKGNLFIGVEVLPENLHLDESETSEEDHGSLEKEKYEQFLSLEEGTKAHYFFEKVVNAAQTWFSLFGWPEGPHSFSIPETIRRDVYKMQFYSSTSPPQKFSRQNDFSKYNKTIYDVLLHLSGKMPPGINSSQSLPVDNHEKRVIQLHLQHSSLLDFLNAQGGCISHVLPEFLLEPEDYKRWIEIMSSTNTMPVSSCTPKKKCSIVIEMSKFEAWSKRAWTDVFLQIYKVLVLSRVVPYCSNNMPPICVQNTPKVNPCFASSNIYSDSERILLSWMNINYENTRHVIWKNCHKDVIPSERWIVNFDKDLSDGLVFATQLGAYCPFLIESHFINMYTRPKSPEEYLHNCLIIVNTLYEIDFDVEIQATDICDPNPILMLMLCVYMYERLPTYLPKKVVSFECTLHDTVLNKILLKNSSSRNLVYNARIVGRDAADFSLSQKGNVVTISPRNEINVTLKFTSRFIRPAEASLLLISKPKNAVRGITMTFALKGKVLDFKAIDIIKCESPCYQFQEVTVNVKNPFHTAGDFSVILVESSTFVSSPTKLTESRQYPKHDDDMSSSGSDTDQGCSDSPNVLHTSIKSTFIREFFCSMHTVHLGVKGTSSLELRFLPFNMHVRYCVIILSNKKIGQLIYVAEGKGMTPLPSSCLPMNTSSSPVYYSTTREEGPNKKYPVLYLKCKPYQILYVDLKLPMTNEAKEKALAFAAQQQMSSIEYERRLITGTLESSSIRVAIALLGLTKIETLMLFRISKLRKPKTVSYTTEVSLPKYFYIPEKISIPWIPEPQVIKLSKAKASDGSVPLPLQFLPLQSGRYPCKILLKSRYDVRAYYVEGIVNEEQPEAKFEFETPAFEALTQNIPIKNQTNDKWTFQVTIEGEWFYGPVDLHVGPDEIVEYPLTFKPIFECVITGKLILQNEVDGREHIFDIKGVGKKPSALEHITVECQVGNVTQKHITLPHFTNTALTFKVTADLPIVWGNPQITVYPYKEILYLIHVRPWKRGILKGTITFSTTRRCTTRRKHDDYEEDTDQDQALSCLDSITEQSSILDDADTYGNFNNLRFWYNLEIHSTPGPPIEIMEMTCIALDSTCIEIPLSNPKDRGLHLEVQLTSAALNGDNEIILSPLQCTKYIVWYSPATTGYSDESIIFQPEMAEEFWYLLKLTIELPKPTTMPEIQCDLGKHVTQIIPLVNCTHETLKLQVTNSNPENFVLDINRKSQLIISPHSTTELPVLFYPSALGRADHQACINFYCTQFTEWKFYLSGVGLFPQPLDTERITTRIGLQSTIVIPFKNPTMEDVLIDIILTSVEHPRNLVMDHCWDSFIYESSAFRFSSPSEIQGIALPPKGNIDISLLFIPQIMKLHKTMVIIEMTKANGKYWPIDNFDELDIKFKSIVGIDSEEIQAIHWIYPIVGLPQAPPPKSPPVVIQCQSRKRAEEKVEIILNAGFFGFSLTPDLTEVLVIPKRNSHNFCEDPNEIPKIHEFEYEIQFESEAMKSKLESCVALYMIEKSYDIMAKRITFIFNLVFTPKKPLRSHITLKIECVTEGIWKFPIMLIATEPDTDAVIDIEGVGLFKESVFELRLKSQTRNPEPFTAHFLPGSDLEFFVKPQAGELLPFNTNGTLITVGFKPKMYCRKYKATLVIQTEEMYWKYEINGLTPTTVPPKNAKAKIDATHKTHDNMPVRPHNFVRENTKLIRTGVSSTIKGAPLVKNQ
UniProt O15182: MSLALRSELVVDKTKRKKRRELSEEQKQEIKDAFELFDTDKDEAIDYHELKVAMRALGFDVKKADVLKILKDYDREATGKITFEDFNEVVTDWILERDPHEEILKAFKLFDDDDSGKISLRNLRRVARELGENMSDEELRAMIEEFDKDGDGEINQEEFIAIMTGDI

[1] = compound: Cc1nc(Nc2n[nH]c3c2CN(C(=O)N[C@H](CN(C)C)c2ccccc2)C3(C)C)c2sccc2n1
Procedure, shortened: as §1

dasatinib = compound: Cc1nc(Nc2ncc(C(=O)Nc3c(C)cccc3Cl)s2)cc(N2CCN(CCO)CC2)n1 [dasatinib]
Procedure, shortened: as §1

[2] = compound: Cc1ncc(-c2ccnc(Nc3ccc(S(C)(=O)=O)cc3)n2)n1C(C)C
Procedure, shortened: as §1

[3] = compound: Cn1cc(-c2ccc3c(c2)CCN3C(=O)Cc2cccc(C(F)(F)F)c2)c2c(N)ncnc21
Procedure, shortened: as §1

quisinostat = compound: Cn1cc(CNCC2CCN(c3ncc(C(=O)NO)cn3)CC2)c2ccccc21 [quisinostat]
Procedure, shortened: as §1

tipifarnib = compound: Cn1cncc1[C@@](N)(c1ccc(Cl)cc1)c1ccc2c(c1)c(-c1cccc(Cl)c1)cc(=O)n2C [tipifarnib]
Procedure, shortened: as §1

[4] = compound: NC(=O)Nc1cc(-c2cccc(F)c2)sc1C(=O)N[C@H]1CCCNC1
Procedure, shortened: as §1

[5] = compound: NC(=O)c1cnc(N[C@@H]2CCCC[C@@H]2N)nc1Nc1cccc(-n2nccn2)c1
Procedure, shortened: as §1

[6] = compound: NC1(c2ccc(-c3nc4ccn5c(=O)[nH]nc5c4cc3-c3ccccc3)cc2)CCC1
Procedure, shortened: as §1

Measured: log2 fold change

CENPE (UniProt Q02224)
inactive: nilotinib -0.017 | [1] 0.015 | dasatinib -0.055 | [2] 0.001 | [3] 0.038 | quisinostat -0.143 | tipifarnib -0.099 | [4] 0.04 | [5] -0.044 | [6] -0.032

CDS2 (UniProt O95674)
inactive: nilotinib -0.035 | [1] -0.093 | dasatinib 0.073 | [2] 0.062 | [3] -0.005 | quisinostat -0.045 | tipifarnib 0.093 | [4] -0.01 | [5] 0 | [6] -0.152

CEP41 (UniProt Q9BYV8)
inactive: nilotinib 0.001 | [1] 0.034 | dasatinib 0.043 | [2] -0.008 | [3] -0.077 | quisinostat -0.068 | tipifarnib -0.027 | [4] -0.128 | [5] 0.066 | [6] 0.076

CFAP36 (UniProt Q96G28)
inactive: nilotinib -0.037 | [1] -0.002 | dasatinib 0 | [2] -0.022 | [3] -0.041 | quisinostat 0.066 | tipifarnib 0.005 | [4] -0.024 | [5] 0.001 | [6] -0.007

CGGBP1 (UniProt Q9UFW8)
inactive: nilotinib 0.01 | [1] -0.052 | dasatinib 0.064 | [2] -0.043 | [3] -0.005 | quisinostat 0.02 | tipifarnib -0.005 | [4] -0.025 | [5] 0.001 | [6] 0.011

CEP290 (UniProt O15078)
inactive: nilotinib -0.023 | [1] -0.008 | dasatinib -0.063 | [2] -0.051 | [3] -0.018 | quisinostat -0.071 | tipifarnib 0.055 | [4] -0.019 | [5] 0.001 | [6] 0.126

CFL2 (UniProt Q9Y281)
inactive: nilotinib -0.034 | [1] 0.034 | dasatinib 0.061 | [2] -0.01 | [3] 0.017 | quisinostat -0.066 | tipifarnib -0.088 | [4] 0.015 | [5] 0.02 | [6] -0.114

CDSN (UniProt Q15517)
inactive: nilotinib 0.021 | [1] 0.489 | dasatinib -0.018 | [2] -0.193 | [3] -0.105 | quisinostat 0.53 | tipifarnib -0.196 | [4] -0.285 | [5] 0.191 | [6] 0.229

CDK12 (UniProt Q9NYV4)
inactive: nilotinib -0.013 | [1] -0.032 | dasatinib 0.009 | [2] 0.068 | [3] -0.007 | quisinostat -0.007 | tipifarnib -0.025 | [4] -0.021 | [5] -0.005 | [6] -0.01

CDK13 (UniProt Q14004)
inactive: nilotinib -0.081 | [1] 0 | dasatinib 0.004 | [2] -0.051 | [3] 0.005 | quisinostat 0.068 | tipifarnib 0.032 | [4] -0.039 | [5] 0.033 | [6] 0.131

CEP97 (UniProt Q8IW35)
inactive: nilotinib 0.007 | [1] -0.015 | dasatinib -0.055 | [2] 0.005 | [3] 0.023 | quisinostat -0.108 | tipifarnib -0.029 | [4] 0.016 | [5] 0.003 | [6] -0.033

CDC26 (UniProt Q8NHZ8)
inactive: nilotinib -0.025 | [1] -0.051 | dasatinib 0.027 | [2] -0.029 | [3] 0.058 | quisinostat -0.117 | tipifarnib 0.038 | [4] -0.016 | [5] 0.011 | [6] 0.008

CDC40 (UniProt O60508)
inactive: nilotinib -0.015 | [1] -0.026 | dasatinib -0.005 | [2] 0.039 | [3] 0.058 | quisinostat -0.138 | tipifarnib 0.046 | [4] 0.02 | [5] 0.063 | [6] 0.097

CERS6 isoform 2 (UniProt Q6ZMG9)
inactive: nilotinib 0.1 | [1] -0.225 | dasatinib 0.06 | [2] 0 | [3] -0.101 | quisinostat 0.037 | tipifarnib -0.087 | [4] -0.048 | [5] -0.028 | [6] 0.004

CDKAL1 (UniProt Q5VV42)
inactive: nilotinib 0.003 | [1] -0.018 | dasatinib -0.036 | [2] 0.007 | [3] 0.011 | quisinostat 0.001 | tipifarnib -0.045 | [4] 0.01 | [5] -0.002 | [6] -0.004

CDC42 (UniProt P60953)
inactive: nilotinib -0.036 | [1] 0.065 | dasatinib 0.084 | [2] 0.026 | [3] -0.022 | quisinostat 0.109 | tipifarnib -0.028 | [4] -0.021 | [5] 0.041 | [6] 0.017

CENPS (UniProt Q8N2Z9)
inactive: nilotinib -0.194 | [1] 0.089 | dasatinib -0.048 | [2] 0.065 | [3] -0.013 | quisinostat -0.051 | tipifarnib 0.055 | [4] 0.049 | [5] 0.077 | [6] -0.022

CEP120 (UniProt Q8N960)
active: nilotinib 0.524
inactive: [1] -0.186 | dasatinib 0 | [2] -0.251 | [3] -0.001 | quisinostat -0.067 | tipifarnib 0.16 | [4] 0.013 | [5] 0.024 | [6] -0.151

CDC16 (UniProt Q13042)
inactive: nilotinib -0.013 | [1] 0.023 | dasatinib -0.012 | [2] -0.027 | [3] 0.019 | quisinostat 0.01 | tipifarnib 0.017 | [4] 0.024 | [5] -0.019 | [6] -0.014

CDK5 (UniProt Q00535)
inactive: nilotinib -0.013 | [1] 0.23 | dasatinib 0.022 | [3] 0.019 | quisinostat -0.132 | tipifarnib 0.003 | [4] 0.044 | [5] 0.05 | [6] -0.112
active: [2] 0.541

CDR2 (UniProt Q01850)
inactive: nilotinib 0.029 | [1] -0.086 | dasatinib 0 | [2] 0.009 | [3] 0.004 | quisinostat -0.027 | tipifarnib 0.032 | [4] 0.009 | [5] -0.053 | [6] 0.003

CDK4 (UniProt P11802)
inactive: nilotinib -0.077 | [1] -0.024 | dasatinib -0.008 | [2] 0.148 | [3] 0.004 | quisinostat -0.033 | tipifarnib 0.001 | [4] 0.001 | [5] 0.002 | [6] -0.019

CDC25A (UniProt P30304)
inactive: nilotinib 0.013 | [1] -0.01 | dasatinib -0.035 | [2] -0.021 | [3] 0.024 | quisinostat 0.006 | tipifarnib 0.011 | [4] 0.017 | [5] 0.016 | [6] 0.025

CDK1 (UniProt P06493)
inactive: nilotinib -0.026 | [1] 0.018 | dasatinib -0.027 | [2] 0.067 | [3] -0.02 | quisinostat 0.003 | tipifarnib 0.015 | [4] 0.012 | [5] 0.127 | [6] 0.015

CENPU (UniProt Q71F23)
inactive: nilotinib 0.03 | [1] -0.047 | dasatinib 0.032 | [2] -0.078 | [3] 0 | quisinostat -0.006 | tipifarnib -0.027 | [4] 0.004 | [5] -0.013 | [6] -0.022

CEP55 (UniProt Q53EZ4)
inactive: nilotinib -0.066 | [1] 0.039 | dasatinib -0.03 | [2] 0.045 | [3] -0.02 | quisinostat -0.002 | tipifarnib -0.074 | [4] 0.013 | [5] 0.062 | [6] 0.031

CFAP47 (UniProt Q6ZTR5)
inactive: nilotinib 0.078 | [1] 0 | dasatinib 0 | [2] 0.101 | [3] -0.092 | quisinostat -0.194 | tipifarnib -0.095 | [4] 0.123 | [5] -0.125 | [6] -0.321

CEBPZ (UniProt Q03701)
inactive: nilotinib 0.024 | [1] -0.018 | dasatinib -0.023 | [2] 0 | [3] 0.005 | quisinostat -0.015 | tipifarnib 0.018 | [4] 0.078 | [5] -0.013 | [6] -0.026

CETN3 (UniProt O15182)
inactive: nilotinib -0.005 | [1] -0.012 | dasatinib -0.069 | [2] -0.105 | [3] 0.01 | quisinostat 0.069 | tipifarnib -0.028 | [4] -0.057 | [5] 0.05 | [6] 0.034

CDR2L (UniProt Q86X02)
inactive: nilotinib -0.056 | [1] -0.123 | dasatinib 0.047 | [2] 0.048 | [3] -0.031 | quisinostat -0.054 | tipifarnib -0.005 | [4] -0.009 | [5] 0.013 | [6] -0.044

2 neighbouring records out of the list so far, for reference:
CENPU (UniProt Q71F23)
inactive: nilotinib 0.03 | [1] -0.047 | dasatinib 0.032 | [2] -0.078 | [3] 0 | quisinostat -0.006 | tipifarnib -0.027 | [4] 0.004 | [5] -0.013 | [6] -0.022

CEP55 (UniProt Q53EZ4)
inactive: nilotinib -0.066 | [1] 0.039 | dasatinib -0.03 | [2] 0.045 | [3] -0.02 | quisinostat -0.002 | tipifarnib -0.074 | [4] 0.013 | [5] 0.062 | [6] 0.031

From the supplement of paper PMC10849652
